For assay [1], the target named is T1, human dihydrolipoamide dehydrogenase, wild type (human), P09622.
T1 chain: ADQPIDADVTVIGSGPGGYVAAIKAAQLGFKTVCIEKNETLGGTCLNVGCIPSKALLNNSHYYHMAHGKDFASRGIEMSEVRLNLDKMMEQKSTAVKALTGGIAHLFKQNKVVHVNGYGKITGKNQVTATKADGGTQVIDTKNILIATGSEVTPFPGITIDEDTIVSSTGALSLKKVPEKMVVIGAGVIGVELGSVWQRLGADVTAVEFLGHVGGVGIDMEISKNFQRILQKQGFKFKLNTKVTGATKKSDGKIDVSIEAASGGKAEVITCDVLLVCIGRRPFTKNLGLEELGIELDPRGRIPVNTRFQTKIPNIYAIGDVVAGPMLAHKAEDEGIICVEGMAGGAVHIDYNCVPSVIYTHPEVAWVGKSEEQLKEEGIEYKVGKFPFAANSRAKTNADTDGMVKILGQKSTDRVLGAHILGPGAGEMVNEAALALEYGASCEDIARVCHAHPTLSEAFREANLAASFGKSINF
Kind of assay: SEC; calibrated size-exclusion chromatography (cSEC); HiPrep 16/60 Sephacryl S-200 HR, 4 °C, 150 mM ammonium acetate, pH 6.80, 0.5 mL/min; 40–780 μg protein loaded; dimer to monomers; both purified. The conditions noted are these: remark: other sources report otherwise.

Another assay deals with G101del-hLADH (human) (UniProt P09622). Described as above.

These are yes or no findings as the source states them, for the method shown. Some entries that bind do so weakly or less than the wild type.

B1: human dihydrolipoamide dehydrogenase, wild type, P09622 36-509 (enzyme)
chain: ADQPIDADVTVIGSGPGGYVAAIKAAQLGFKTVCIEKNETLGGTCLNVGCIPSKALLNNSHYYHMAHGKDFASRGIEMSEVRLNLDKMMEQKSTAVKALTGGIAHLFKQNKVVHVNGYGKITGKNQVTATKADGGTQVIDTKNILIATGSEVTPFPGITIDEDTIVSSTGALSLKKVPEKMVVIGAGVIGVELGSVWQRLGADVTAVEFLGHVGGVGIDMEISKNFQRILQKQGFKFKLNTKVTGATKKSDGKIDVSIEAASGGKAEVITCDVLLVCIGRRPFTKNLGLEELGIELDPRGRIPVNTRFQTKIPNIYAIGDVVAGPMLAHKAEDEGIICVEGMAGGAVHIDYNCVPSVIYTHPEVAWVGKSEEQLKEEGIEYKVGKFPFAANSRAKTNADTDGMVKILGQKSTDRVLGAHILGPGAGEMVNEAALALEYGASCEDIARVCHAHPTLSEAFREANLAASFGKSINF
As to B1, the binding entry in assay [1] is “binds”.

B2: G101del-hLADH (enzyme, UniProt P09622 36-509)
chain: ADQPIDADVTVIGSGPGGYVAAIKAAQLGFKTVCIEKNETLGGTCLNVGCIPSKALLNNSHYYHMAHGKDFASRGIEMSEVRLNLDKMMEQKSTAVKALTGIAHLFKQNKVVHVNGYGKITGKNQVTATKADGGTQVIDTKNILIATGSEVTPFPGITIDEDTIVSSTGALSLKKVPEKMVVIGAGVIGVELGSVWQRLGADVTAVEFLGHVGGVGIDMEISKNFQRILQKQGFKFKLNTKVTGATKKSDGKIDVSIEAASGGKAEVITCDVLLVCIGRRPFTKNLGLEELGIELDPRGRIPVNTRFQTKIPNIYAIGDVVAGPMLAHKAEDEGIICVEGMAGGAVHIDYNCVPSVIYTHPEVAWVGKSEEQLKEEGIEYKVGKFPFAANSRAKTNADTDGMVKILGQKSTDRVLGAHILGPGAGEMVNEAALALEYGASCEDIARVCHAHPTLSEAFREANLAASFGKSINF
B2: the binding result with G101del-hLADH (human) is “no binding”.

For the origin of these results see PMC10341545, “Structural and Biochemical Investigation of Selected Pathogenic Mutants of the Human Dihydrolipoamide Dehydrogenase” (International Journal of Molecular Sciences, 2023).
